This experiment has as its target Dsg2 EC2 recombinant protein (recombinant fusion protein containing the Dsg2 extracellular domain 2) (human) (UniProt Q14126). The experiment is described as follows: ELISA, plates coated with 1 ug/mL Dsg2 EC2, detection with HRP goat anti-mouse IgG Fc-gamma. A general note: ELISA stands for enzyme-linked immunosorbent assay.

Protein sequences, listed by entry. Tags and fused reporters are not part of them. Residues count along the entry.
UniProt Q14126, residues 161-273: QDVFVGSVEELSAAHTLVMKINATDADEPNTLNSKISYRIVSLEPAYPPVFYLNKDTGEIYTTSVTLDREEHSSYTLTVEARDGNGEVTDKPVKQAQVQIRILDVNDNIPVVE

Where a chain is given by its changes, count along the chain named. No constants are given. Whether binding was seen depends on the method and setting. Some results given as binding are weak or reduced against the parent protein; the word gives no strength.

B1: Dsg2 monoclonal antibody 3D4 (antibody, V domains shown)
VH: QIQLVQSGPELKKPGETVKISCKASGYTFTNYGMNWVRQAPGKALKWMVWMNTNTGESIYAEEFKGRFVFSLDTSASTAYLQINNLNNEDTATYFCARYWDTYWGQGTTLTVSS
VL: DIKMTQSPSSMYASLGERVTITCKASQDINSYLSWFQQKPGKSPKTLIYRANRLVDGVPSRFSGSGSGQDFSLTISSLEYEDMGIYYCLQYDEFPYTFGGGTKLEIK
notes: Mouse hybridoma antibody from BALB/c mice, detected with anti-mouse IgG Fc-gamma specific antibody; also called mAb 3D4
With B1, the binding entry is listed as “binds”.

B2: Dsg2 monoclonal antibody 13D3 (antibody, V domains shown)
VH: QVQLQQPGAELVKPGASVKLSCKASGYTFTSYYMYWVKQRPGQGLEWIGGINPNNGGTNFNEKFKSKATLTVDKSSSTAYMQLRSLTSEDSAVYYCIRGSGYGNWGQGTLVTVSA
VL: B1 VL with S31G, F71Y
notes: Mouse hybridoma antibody from BALB/c mice, detected with anti-mouse IgG Fc-gamma specific antibody; also called mAb 13D3
For B2, the binding entry is listed as “binds”.
